Not every entry of the source has a single result; some have several. Only these are listed. There may be further records. The values listed for one entry do not match, cause unknown; they may come from other doses, times, organisms or constructs than stated.
Key:
[1] = biological target: Arabidopsis HPPD variant M335H (Arabidopsis thaliana, UniProt P93836, M335H); experiment: HPPD activity assay, Arabidopsis HPPD mutant M335H; assay type: biochemical; settings: normalized on wildtype
Method: (§1) HPPD produces homogentisic acid and CO2 from 4-hydroxyphenylpyruvate (4-HPP) and O2. The activity assay for HPPD is based on the analysis of homogentisic acid by reversed phase HPLC.
(§2) The assay mixture can contain 150 mM potassium phosphate buffer pH 7.0, 50 mM L-ascorbic acid, 1 μM FeSO4 and 7 μg of purified enzyme in a total volume of 1 ml. Inhibitors are dissolved in DMSO (dimethylsulfoxide) to a concentration of 20 mM or 0.5 mM, respectively. From this stock solution serial five-fold dilutions are prepared in DMSO, which are used in the assay. The respective inhibitor solution accounts for 1% of the assay volume. Thus, final inhibitor concentrations range from 200 μM to 2.5 nM or from 5 μM to 63 pM, respectively. After a preincubation of 30 min the reaction is started by adding 4-HPP to a final concentration of 0.1 mM. […]
(§3) Inhibitors are dissolved in DMSO (dimethylsulfoxide) to a concentration of 0.5 mM. […] IC50 values are calculated using non-linear regression.
Purified, mutant HPPD enzymes are obtained by the methods described above. […] Apparent michaelis constants (Km) and maximal reaction velocities (Vmax) are calculated by non-linear regression with the software GraphPad Prism 5 (GraphPad Software, La Jolla, USA) using a substrate inhibition model. […] Weighted means (by standard error) of Km and […] values are calculated from at least three independent experiments. […]

By UniProt entry, the sequences of proteins in these tests, tags left out.
UniProt P93836, whole entry M335H: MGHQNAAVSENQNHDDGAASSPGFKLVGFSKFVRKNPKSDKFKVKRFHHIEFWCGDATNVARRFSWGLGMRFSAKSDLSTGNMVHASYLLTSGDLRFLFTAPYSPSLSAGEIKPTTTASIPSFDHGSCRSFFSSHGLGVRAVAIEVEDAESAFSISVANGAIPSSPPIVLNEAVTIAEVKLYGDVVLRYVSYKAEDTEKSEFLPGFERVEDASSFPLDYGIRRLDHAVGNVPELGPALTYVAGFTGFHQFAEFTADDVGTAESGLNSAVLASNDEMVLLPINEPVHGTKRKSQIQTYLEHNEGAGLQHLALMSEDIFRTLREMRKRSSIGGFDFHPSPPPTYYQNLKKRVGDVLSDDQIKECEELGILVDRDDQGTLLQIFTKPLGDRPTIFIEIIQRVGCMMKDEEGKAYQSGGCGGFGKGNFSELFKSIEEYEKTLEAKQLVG

Picrophilus HPPD = experiment: HPPD activity assay, Picrophilus HPPD; settings: normalized on Hordeum HPPD
Method: as §1
as §2, with “volume.” for “volume. Thus, final inhibitor concentrations range from 200 μM to 2.5 nM or from 5 μM to 63 pM, respectively. After a preincubation of 30 min the reaction is started by adding 4-HPP to a final concentration of 0.1 mM.”
Activities are normalized by setting the uninhibited enzyme activity to 100%. […] values are calculated using non-linear regression. […]
as §3
Using methods which are described in the above examples or well known in the art, purified, recombinant wildtype HPPD enzymes are characterized with respect to their kinetic properties and sensitivity towards HPPD inhibiting herbicides. Apparent michaelis constants (Km) and maximal reaction velocities (Vmax) are calculated by non-linear regression with the software GraphPad Prism 5 (GraphPad Software, La Jolla, USA) using a substrate inhibition model. […]

SMILES	Normalized tolerance index (TI) [1]	Normalized tolerance index (TI) (Picrophilus HPPD)
CC1=NOC(c2c(Cl)ccc(C3=C(O)c4ncccc4N(CC(F)F)S3(=O)=O)c2Cl)C1 (stereo not drawn) [Inhibitor 1, 3-[2,4-dichloro-3-(3-methyl-4,5-dihydroisoxazol-5-yl)phenyl]-1-(2,2-difluoroethyl)-2,2-dioxo-pyrido[3,2-c]thiazin-4-ol]	increase of tolerance index and 2.9	much greater and 289.9
O=S1(=O)C(c2c(Cl)cc(Cl)nc2Cl)=C(O)c2ncccc2N1CC(F)F [Inhibitor 2, 1-(2,2-difluoroethyl)-2,2-dioxo-3-(2,4,6-trichloro-3-pyridyl)pyrido[3,2-c]thiazin-4-ol]		much greater and 222.8

From patent publication US10801035B2, “Plants having increased tolerance to herbicides” (BASF SE, priority 2011, dated 2020)
